No constants are given. Whether binding was seen depends on the method and setting. In cells and extracts the contact can be indirect. Binding can be weak; no strength is given.
Molecular target: protein A (ZZ)-tagged proteasomal β1 subunit (UniProt P28072)
Experiment: co-IP; HeLa cells co-transfected with pSG5-β1-ZZ or control plasmid and pcDNA3-HA-Vpr, 48 hrs; precipitated with anti-protein A antibody, blotted with anti-HA

Amino acid sequences for entries named in this document (tags omitted). A change or cut given only in a name is not applied to a line headed by its entry.
UniProt P28072: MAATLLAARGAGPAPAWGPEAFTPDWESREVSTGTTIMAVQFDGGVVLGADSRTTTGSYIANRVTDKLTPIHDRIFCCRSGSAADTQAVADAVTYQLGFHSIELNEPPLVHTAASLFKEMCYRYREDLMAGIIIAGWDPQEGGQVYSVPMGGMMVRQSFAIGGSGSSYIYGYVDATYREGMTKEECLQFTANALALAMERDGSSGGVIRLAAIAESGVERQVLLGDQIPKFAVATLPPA
UniProt P12520: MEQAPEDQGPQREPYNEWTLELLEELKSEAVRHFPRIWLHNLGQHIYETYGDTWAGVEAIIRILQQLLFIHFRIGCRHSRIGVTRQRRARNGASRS

Substance: HA-tagged Vpr on pcDNA3.1, expressed in HeLa cells (from UniProt P12520 1-96)
- binding: binds

— PMC2894085
